In patent US20250115628A1, “FLUORINATED FLUOROPHORES” (HOWARD HUGHES MEDICAL INSTITUTE, priority 2023, published 2025):
Some results were stated once for a whole list of compounds, not compound by compound. Some compounds share one range, which may span the group rather than tell each member.

How the values were obtained:
[1] = Quantum yield determination; assay type: physicochemical; conditions: quinolinyl rhodamines; 10 mM HEPES, pH 7.3
Protocol: All reported absolute fluorescence quantum yield values (Φf) were measured using a Quantaurus-QY spectrometer (model C11374, Hamamatsu). This instrument uses an integrating sphere to determine photons absorbed and emitted by a sample. Measurements were carried out using dilute samples (A<0.1), and self-absorption corrections were performed using the instrument software.^81

[2] = General UV-vis and fluorescence spectroscopy; assay type: physicochemical; conditions: for bathochromic shift in λabs and λem: relative to the parent carbofluorescein (74) and Virginia Orange (78) dyes
Protocol: Spectroscopy was performed using 1^−cm path length, 3.5^−mL quartz cuvettes or 1^−cm path length, 1.4^−mL semi-micro quartz cuvettes from Starna Cells. All measurements were taken at ambient temperature (22±2° C.). Absorption spectra were recorded on a Cary Model 100 spectrometer (Agilent), and fluorescence spectra were recorded on a Cary Eclipse fluorometer (Varian). The spectra, maximum absorption wavelength (labs), extinction coefficient at λabs (8), and maximum emission wavelength (em) were measured in 10 mM HEPES, pH 7.3 buffer (rhodamines and Malachite Green derivative 49) or 0.1 M NaOH (fluoresceins); the reported values for e are averages (n=3). Normalized spectra are shown for clarity.

With `CC1=CC(C)(C)N(C)c2cc3c(cc21)C(c1ccccc1C(=O)[O-])=c1cc2c(cc1O3)=[N+](C)C(C)(C)C=C2C` [compound 103, 2^−(1,2,2,4,8,10,10,11-Octamethyl-1,2,10,11-tetrahydropyrano[3,2^−g:5,6^−g]diquinolin-13^−ium-6^−yl)benzoate] the Φf [1] was 0.64-0.83.

`C=C/C=C(\C=C)N(C)c1ccc2c(c1)[Si](C)(C)c1cc(N(C)c3ccccc3)ccc1C21OC(=O)c2ccccc21` (centres unmarked) [compound 92, 5,5^−Dimethyl-3,7^−bis(methyl(phenyl)amino)-3′H,5H-spiro[dibenzo[b,e]siline-10,1′-isobenzofuran]-3′-one] showed a ε ([2]; rhodamine derivatives, 10 mM HEPES, pH 7.3) of less than 200 M⁻¹ cm⁻¹.

In the case of `CC1(C)C2=CC(=O)C(F)=CC2=C(c2c(F)c(F)c(F)c(F)c2C(=O)O)c2cc(F)c(O)cc21` [compound 53, 2′,4,5,6,7,7′-Hexafluorocarbofluorescein], the “bathochromic shift in λabs and λem” value [2] is reported as greater than 15 nm.

With `CC1=CC(C)(C)N(C)c2cc3c(cc21)C(c1c(F)c(F)c(F)c(F)c1C(=O)[O-])=c1cc2c(cc1O3)=[N+](C)C(C)(C)C=C2C` [compound 11, 2,3,4,5^−Tetrafluoro-6^−(1,2,2,4,8,10,10,11^−octamethyl-1,2,10,11-tetrahydropyrano[3,2^−g:5,6^−g]diquinolin-13^−ium-6^−yl)benzoate] the Φf [1] was 0.64-0.83.

With `CC1(C)C2=CC(=O)C=CC2=C(c2c(F)c(F)c(F)c(F)c2C(=O)O)c2ccc(O)cc21` [compound 51, 4,5,6,7^−Tetrafluoro-carbofluorescein] the “bathochromic shift in λabs and λem” value [2] was greater than 15 nm.
